First the molecules themselves.
T1: mycBirA*–Rab25 (UniProt P57735)
T1 sequence: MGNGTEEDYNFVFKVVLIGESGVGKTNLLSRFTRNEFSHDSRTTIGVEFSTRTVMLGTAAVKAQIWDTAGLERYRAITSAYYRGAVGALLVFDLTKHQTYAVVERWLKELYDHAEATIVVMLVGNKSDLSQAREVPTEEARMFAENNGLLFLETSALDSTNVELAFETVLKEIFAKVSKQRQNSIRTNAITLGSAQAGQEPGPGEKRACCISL

By UniProt entry, the sequences of proteins in these tests, tags left out.
UniProt P62491: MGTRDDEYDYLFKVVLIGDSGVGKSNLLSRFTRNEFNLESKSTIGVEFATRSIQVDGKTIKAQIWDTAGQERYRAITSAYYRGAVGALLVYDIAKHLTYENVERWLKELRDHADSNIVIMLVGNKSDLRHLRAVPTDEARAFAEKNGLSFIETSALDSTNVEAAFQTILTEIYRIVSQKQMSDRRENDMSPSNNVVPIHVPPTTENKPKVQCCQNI
UniProt P20338: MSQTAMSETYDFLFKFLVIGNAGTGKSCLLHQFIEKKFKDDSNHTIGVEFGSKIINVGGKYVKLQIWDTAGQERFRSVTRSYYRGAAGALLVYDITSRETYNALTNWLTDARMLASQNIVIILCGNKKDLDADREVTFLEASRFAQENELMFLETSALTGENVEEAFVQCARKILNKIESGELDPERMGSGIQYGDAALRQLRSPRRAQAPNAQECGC

B1: CHM-like Rab escort protein (protein, UniProt P26374 1-656)
chain: MADNLPTEFDVVIIGTGLPESILAAACSRSGQRVLHIDSRSYYGGNWASFSFSGLLSWLKEYQQNNDIGEESTVVWQDLIHETEEAITLRKKDETIQHTEAFCYASQDMEDNVEEIGALQKNPSLGVSNTFTEVLDSALPEESQLSYFNSDEMPAKHTQKSDTEISLEVTDVEESVEKEKYCGDKTCMHTVSDKDGDKDESKSTVEDKADEPIRNRITYSQIVKEGRRFNIDLVSKLLYSQGLLIDLLIKSDVSRYVEFKNVTRILAFREGKVEQVPCSRADVFNSKELTMVEKRMLMKFLTFCLEYEQHPDEYQAFRQCSFSEYLKTKKLTPNLQHFVLHSIAMTSESSCTTIDGLNATKNFLQCLGRFGNTPFLFPLYGQGEIPQGFCRMCAVFGGIYCLRHKVQCFVVDKESGRCKAIIDHFGQRINAKYFIVEDSYLSEETCSNVQYKQISRAVLITDQSILKTDLDQQTSILIVPPAEPGACAVRVTELCSSTMTCMKDTYLVHLTCSSSKTAREDLESVVKKLFTPYTETEINEEELTKPRLLWALYFNMRDSSGISRSSYNGLPSNVYVCSGPDCGLGNEHAVKQAETLFQEIFPTEEFCPPPPNPEDIIFDGDDKQPEAPGTNNVVMAKLESSEESKNLESPEKHLQN
B2: YKT6 (protein, UniProt O15498 1-198)
chain: MKLYSLSVLYKGEAKVVLLKAAYDVSSFSFFQRSSVQEFMTFTSQLIVERSSKGTRASVKEQDYLCHVYVRNDSLAGVVIADNEYPSRVAFTLLEKVLDEFSKQVDRIDWPVGSPATIHYPALDGHLSRYQNPREADPMTKVQAELDETKIILHNTMESLLERGEKLDDLVSKSEVLGTQSKAFYKTARKQNSCCAIM
B3: Rab11FIP5 (protein, UniProt Q9BXF6 1-653)
chain: MALVRGAEPAAGPSRWLPTHVQVTVLRARGLRGKSSGAGSTSDAYTVIQVGREKYSTSVVEKTHGCPEWREECSFELPPGALDGLLRAQEADAGPAPWAASSAAACELVLTTMHRSLIGVDKFLGQATVALDEVFGAGRAQHTQWYKLHSKPGKKEKERGEIEVTIQFTRNNLSASMFDLSMKDKPRSPFSKIRDKMKGKKKYDLESASAILPSSAIEDPDLGSLGKMGKAKGFFLRNKLRKSSLTQSNTSLGSDSTLSSASGSLAYQGPGAELLTRSPSRSSWLSTEGGRDSAQSPKLFTHKRTYSDEANQMRVAPPRALLDLQGHLDAASRSSLCVNGSHIYNEEPQGPVRHRSSISGSLPSSGSLQAVSSRFSEEGPRSTDDTWPRGSRSNSSSEAVLGQEELSAQAKVLAPGASHPGEEEGARLPEGKPVQVATPIVASSEAVAEKEGARKEERKPRMGLFHHHHQGLSRSELGRRSSLGEKGGPILGASPHHSSSGEEKAKSSWFGLREAKDPTQKPSPHPVKPLSAAPVEGSPDRKQSRSSLSIALSSGLEKLKTVTSGSIQPVTQAPQAGQMVDTKRLKDSAVLDQSAKYYHLTHDELISLLLQRERELSQRDEHVQELESYIDRLLVRIMETSPTLLQIPPGPPK
B4: CRACR2A (protein, UniProt Q9BSW2 1-731)
chain: MAAPDGRVVSRPQRLGQGSGQGPKGSGACLHPLDSLEQKETQEQTSGQLVMLRKAQEFFQTCDAEGKGFIARKDMQRLHKELPLSLEELEDVFDALDADGNGYLTPQEFTTGFSHFFFSQNNPSQEDAGEQVAQRHEEKVYLSRGDEDLGDMGEDEEAQFRMLMDRLGAQKVLEDESDVKQLWLQLKKEEPHLLSNFEDFLTRIISQLQEAHEEKNELECALKRKIAAYDEEIQHLYEEMEQQIKSEKEQFLLKDTERFQARSQELEQKLLCKEQELEQLTQKQKRLEGQCTALHHDKHETKAENTKLKLTNQELARELERTSWELQDAQQQLESLQQEACKLHQEKEMEVYRVTESLQREKAGLLKQLDFLRERNKHLRDERDICFQKNKAAKANTAASRASWKKRSGSVIGKYVDSRGILRSQSEEEEEVFGIPRRSSLGLSGYPLTEEEPGTGEPGPGGPYPRPLRRIISVEEDPLPQLLDGGFEQPLSKCSEEEEVSDQGVQGQIPEAPPLKLTPTSPRGQPVGKEALCKEESSPSAPDRLFKIVFVGNSAVGKTSFLRRFCEDRFSPGMAATVGIDYRVKTLNVDNSQVALQLWDTAGQERYRCITQQFFRKADGVIVMYDLTDKQSFLSVRRWLSSVEEAVGDRVPVLLLGNKLDNEKEREVPRGLGEQLATENNLIFYECSAYSGHNTKESLLHLARFLKEQEDTVREDTIQVGHPAKKKSCCG
B5: SNX29 (protein, UniProt Q8TEQ0 1-813)
chain: MSGSQNNDKRQFLLERLLDAVKQCQIRFGGRKEIASDSDSRVTCLCAQFEAVLQHGLKRSRGLALTAAAIKQAAGFASKTETEPVFWYYVKEVLNKHELQRFYSLRHIASDVGRGRAWLRCALNEHSLERYLHMLLADRCRLSTFYEDWSFVMDEERSSMLPTMAAGLNSILFAINIDNKDLNGQSKFAPTVSDLLKESTQNVTSLLKESTQGVSSLFREITASSAVSILIKPEQETDPLPVVSRNVSADAKCKKERKKKKKVTNIISFDDEEDEQNSGDVFKKTPGAGESSEDNSDRSSVNIMSAFESPFGPNSNGSQSSNSWKIDSLSLNGEFGYQKLDVKSIDDEDVDENEDDVYGNSSGRKHRGHSESPEKPLEGNTCLSQMHSWAPLKVLHNDSDILFPVSGVGSYSPADAPLGSLENGTGPEDHVLPDPGLRYSVEASSPGHGSPLSSLLPSASVPESMTISELRQATVAMMNRKDELEEENRSLRNLLDGEMEHSAALRQEVDTLKRKVAEQEERQGMKVQALARENEVLKVQLKKYVGAVQMLKREGQTAEVPNLWSVDGEVTVAEQKPGEIAEELASSYERKLIEVAEMHGELIEFNERLHRALVAKEALVSQMRQELIDLRGPVPGDLSQTSEDQSLSDFEISNRALINVWIPSVFLRGKAANAFHVYQVYIRIKDDEWNIYRRYTEFRSLHHKLQNKYPQVRAYNFPPKKAIGNKDAKFVEERRKQLQNYLRSVMNKVIQMVPEFAASPKKETLIQLMPFFVDITPPGEPVNSRPKAASRFPKLSRGQPRETRNVEPQSGDL
B6: GRIPAP1 (protein, UniProt Q4V328 1-841)
chain: MAQALSEEEFQRMQAQLLELRTNNYQLSDELRKNGVELTSLRQKVAYLDKEFSKAQKALSKSKKAQEVEVLLSENEMLQAKLHSQEEDFRLQNSTLMAEFSKLCSQMEQLEQENQQLKEGAAGAGVAQAGPLVDGELLRLQAENTALQKNVAALQERYGKEAGKFSAVSEGQGDPPGGLAPTVLAPMPLAEVELKWEMEKEEKRLLWEQLQGLESSKQAETSRLQEELAKLSEKLKKKQESFCRLQTEKETLFNDSRNKIEELQQRKEADHKAQLARTQKLQQELEAANQSLAELRDQRQGERLEHAAALRALQDQVSIQSADAQEQVEGLLAENNALRTSLAALEQIQTAKTQELNMLREQTTGLAAELQQQQAEYEDLMGQKDDLNSQLQESLRANSRLLEQLQEIGQEKEQLTQELQEARKSAEKRKAMLDELAMETLQEKSQHKEELGAVRLRHEKEVLGVRARYERELRELHEDKKRQEEELRGQIREEKARTRELETLQQTVEELQAQVHSMDGAKGWFERRLKEAEESLQQQQQEQEEALKQCREQHAAELKGKEEELQDVRDQLEQAQEERDCHLKTISSLKQEVKDTVDGQRILEKKGSAALKDLKRQLHLERKRADKLQERLQDILTNSKSRSGLEELVLSEMNSPSRTQTGDSSSISSFSYREILREKESSAVPARSLSSSPQAQPPRPAELSDEEVAELFQRLAETQQEKWMLEEKVKHLEVSSASMAEDLCRKSAIIETYVMDSRIDVSVAAGHTDRSGLGSVLRDLVKPGDENLREMNKKLQNMLEEQLTKNMHLHKDMEVLSQEIVRLSKECVGPPDPDLEPGETS
B7: TBC1D8 (protein, UniProt O95759 1-1140)
chain: MWLKPEEVLLKNALKLWVTQKSSCYFILQRRRGHGEGGGRLTGRLVGALDAVLDSNARVAPFRILLQVPGSQVYSPIACGATLEEINQHWDWLEQNLLHTLSVFDNKDDIASFVKGKVKALIAEETSSRLAEQEEEPEKFREALVKFEARFNFPEAEKLVTYYSCCCWKGRVPRQGWLYLSINHLCFYSFFLGKELKLVVPWVDIQKLERTSNVFLTDTIRITTQNKERDFSMFLNLDEVFKVMEQLADVTLRRLLDNEVFDLDPDLQEPSQITKRDLEARAQNEFFRAFFRLPRKEKLHAVVDCSLWTPFSRCHTTGRMFASDSYICFASREDGCCKIILPLREVVSIEKMEDTSLLPHPIIVSIRSKVAFQFIELRDRDSLVEALLARLKQVHANHPVHYDTSADDDMASLVFHSTSMCSDHRFGDLEMMSSQNSEESEKEKSPLMHPDALVTAFQQSGSQSPDSRMSREQIKISLWNDHFVEYGRTVCMFRTEKIRKLVAMGIPESLRGRLWLLFSDAVTDLASHPGYYGNLVEESLGKCCLVTEEIERDLHRSLPEHPAFQNETGIAALRRVLTAYAHRNPKIGYCQSMNILTSVLLLYTKEEEAFWLLVAVCERMLPDYFNHRVIGAQVDQSVFEELIKGHLPELAEHMNDLSALASVSLSWFLTLFLSIMPLESAVNVVDCFFYDGIKAIFQLGLAVLEANAEDLCSSKDDGQALMILSRFLDHIKNEDSPGPPVGSHHAFFSDDQEPYPVTDISDLIRDSYEKFGDQSVEQIEHLRYKHRIRVLQGHEDTTKQNVLRVVIPEVSILPEDLEELYDLFKREHMMSCYWEQPRPMASRHDPSRPYAEQYRIDARQFAHLFQLVSPWTCGAHTEILAERTFRLLDDNMDQLIEFKAFVSCLDIMYNGEMNEKIKLLYRLHIPPALTENDRDSQSPLRNPLLSTSRPLVFGKPNGDAVDYQKQLKQMIKDLAKEKDKTEKELPKMSQREFIQFCKTLYSMFHEDPEENDLYQAIATVTTLLLQIGEVGQRGSSSGSCSQECGEELRASAPSPEDSVFADTGKTPQDSQAFPEAAERDWTVSLEHILASLLTEQSLVNFFEKPLDMKSKLENAKINQYNLKTFEMSHQSQSELKLSNL

No constants are given. Whether binding was seen depends on the method and setting. Binding seen in cells or lysates may run through a third protein. A yes stands for co-enrichment or nearness to the bait. Other partners may have been found. For part of these data: No binding means not detected with the bait. For part of these data: Tags and fused reporters may be left off the sequences shown.

For the first assay, the target named is mycBirA*–Rab11a (UniProt P62491). Nature of the assay: proximity labelling; BioID: A2780 cells stably expressing mycBirA*-Rab baits (mycBirA* alone as control), 1 uM biotin for 16 h; lysis in 0.4% SDS, 500 mM NaCl buffer; streptavidin microspheres; LC-MS/MS with label-free quantification, four replicates; high-confidence list by SAINTexpress (BFDR<=0.05), longlist by >2-fold enrichment; biotin-modified peptides also scored.
Consider B1, for which the binding result is listed as “binds”.
The same measure, in the same setting: the value for B2 was “binds”.
Still for that read-out and setting: the value for B3 was “binds”.
Still for that read-out and setting: the value for B4 was “binds”.

The target of the next assay is mycBirA*–Rab4a (UniProt P20338). Described as above.
Turning to B1, the binding result is listed as “binds”.
The same measure, in the same setting: the value for B2 was “binds”.
Still for that read-out and setting: the value for B5 was “binds”; that for B6 was “binds”.
Still for that read-out and setting: the value for B3 was “no binding”.
B7: the binding result was “binds”.
Same read-out and setting: the value for B4 was “no binding”.

The next assay addresses T1, mycBirA*–Rab25. The description is as above.
For B1, the binding result is “binds”.
The same measure, in the same setting: the value for B2 was “binds”.
On the same count and under the same terms, the value for B3 was “binds”; that for B4 was “binds”.

The record behind these values is PMC10323252.
